Entries after “also recorded” stand apart in the source; their conditions may differ. For at least one compound, name, drawing or mass did not settle the structure.
Columns and labels:
[1] = test system: 832/13 cells; assay: Insulin secretion assay in 832/13 cells (radioimmunoassay); format: cell-based, rat; conditions: oxamate present vs absent, 13C labeled glucose, 4 hours
Experimental: FIG. 3. Stimulation of insulin secretion by lactate, pyruvate, and glucose in 832/13 cells. Confluent, insulin secreting 832/13 cells were stimulated for 2 hours with various concentrations of secretagogues as indicated in the figure, and IS was determined by radioimmunoassay of the cell supernatant.
FIG. 4. The effect of rat LDHA overexpression on glucose, pyruvate, and lactate-stimulated insulin secretion in 832/13 cells. 832/13 cells were treated with adenovirus expressing rat LDHA (AdLDH) and beta-galactosidase (Adbetagal), respectively. The LDH activity in cell extracts was monitored by the decrease in absorbance at 340 nm (insert) and the insulin response to glucose, pyruvate, and lactate was examined by radioimmunoassay.
FIG. 7B. The effect of the LDH inhibitor oxamate on insulin secretion in 832/13 cells. Cells were incubated with ^13C labeled glucose for 4 hours in the presence or absence of oxamate.
FIG. 14. The effect of mitLDHA and LDHA on fuel-mediated IS in the 832/13 cells. The inset depicts the activity of LDH for each experiment.
The cell line 832/13 was created from INS-1 insulinoma β-cells as described earlier (Hohmeier et al. (2000) Diabetes 49:424430). Cells were cultured in RPMI-1640 medium containing 11 mM glucose supplemented with 10% fetal bovine serum, 10 mM HEPES, 2 mM glutamine, 1 mM sodium pyruvate and 50 mM β-mercaptoethanol. […]

[2] = test system: pancreatic islet β-cells; assay: Insulin secretion in pancreatic islet β-cells with or without oxamate; format: cell-based; conditions: pancreatic islet β-cells / normal rat islets, oxamate present vs absent, 4 hours
[3] = test system: 832/13 cells; assay: Lactate output of 832/13 cells; format: cell-based, rat; conditions: LDH inhibitor oxamate present vs absent; 13C labeled glucose, 4 hours

NC(=O)C(=O)O [oxamate]
glucose-stimulated insulin secretion [1]: large decrease; also recorded: potently inhibits | glucose-stimulated insulin secretion [2]: potently inhibits | glucose-stimulated insulin secretion ([2]; listed as Oxamate): inhibition | lactate production [3]: large decrease

From patent US20050014692A1, “Lactate dehydrogenase as a novel target and reagent for diabetes therapy” (priority 2003, published 2005)
